Laboratory results from article PMC5155164.
Results are given in words; binding and its absence hold for the method and conditions named. Binding seen in cells or lysates may run through a third protein. Binding calls can cover weak binding; strength is not graded here.

Chains of the proteins cited; added tags and fusions are not shown. Lines headed by an entry give the natural chain unless they say otherwise; changes in a name come on top.
UniProt P42858: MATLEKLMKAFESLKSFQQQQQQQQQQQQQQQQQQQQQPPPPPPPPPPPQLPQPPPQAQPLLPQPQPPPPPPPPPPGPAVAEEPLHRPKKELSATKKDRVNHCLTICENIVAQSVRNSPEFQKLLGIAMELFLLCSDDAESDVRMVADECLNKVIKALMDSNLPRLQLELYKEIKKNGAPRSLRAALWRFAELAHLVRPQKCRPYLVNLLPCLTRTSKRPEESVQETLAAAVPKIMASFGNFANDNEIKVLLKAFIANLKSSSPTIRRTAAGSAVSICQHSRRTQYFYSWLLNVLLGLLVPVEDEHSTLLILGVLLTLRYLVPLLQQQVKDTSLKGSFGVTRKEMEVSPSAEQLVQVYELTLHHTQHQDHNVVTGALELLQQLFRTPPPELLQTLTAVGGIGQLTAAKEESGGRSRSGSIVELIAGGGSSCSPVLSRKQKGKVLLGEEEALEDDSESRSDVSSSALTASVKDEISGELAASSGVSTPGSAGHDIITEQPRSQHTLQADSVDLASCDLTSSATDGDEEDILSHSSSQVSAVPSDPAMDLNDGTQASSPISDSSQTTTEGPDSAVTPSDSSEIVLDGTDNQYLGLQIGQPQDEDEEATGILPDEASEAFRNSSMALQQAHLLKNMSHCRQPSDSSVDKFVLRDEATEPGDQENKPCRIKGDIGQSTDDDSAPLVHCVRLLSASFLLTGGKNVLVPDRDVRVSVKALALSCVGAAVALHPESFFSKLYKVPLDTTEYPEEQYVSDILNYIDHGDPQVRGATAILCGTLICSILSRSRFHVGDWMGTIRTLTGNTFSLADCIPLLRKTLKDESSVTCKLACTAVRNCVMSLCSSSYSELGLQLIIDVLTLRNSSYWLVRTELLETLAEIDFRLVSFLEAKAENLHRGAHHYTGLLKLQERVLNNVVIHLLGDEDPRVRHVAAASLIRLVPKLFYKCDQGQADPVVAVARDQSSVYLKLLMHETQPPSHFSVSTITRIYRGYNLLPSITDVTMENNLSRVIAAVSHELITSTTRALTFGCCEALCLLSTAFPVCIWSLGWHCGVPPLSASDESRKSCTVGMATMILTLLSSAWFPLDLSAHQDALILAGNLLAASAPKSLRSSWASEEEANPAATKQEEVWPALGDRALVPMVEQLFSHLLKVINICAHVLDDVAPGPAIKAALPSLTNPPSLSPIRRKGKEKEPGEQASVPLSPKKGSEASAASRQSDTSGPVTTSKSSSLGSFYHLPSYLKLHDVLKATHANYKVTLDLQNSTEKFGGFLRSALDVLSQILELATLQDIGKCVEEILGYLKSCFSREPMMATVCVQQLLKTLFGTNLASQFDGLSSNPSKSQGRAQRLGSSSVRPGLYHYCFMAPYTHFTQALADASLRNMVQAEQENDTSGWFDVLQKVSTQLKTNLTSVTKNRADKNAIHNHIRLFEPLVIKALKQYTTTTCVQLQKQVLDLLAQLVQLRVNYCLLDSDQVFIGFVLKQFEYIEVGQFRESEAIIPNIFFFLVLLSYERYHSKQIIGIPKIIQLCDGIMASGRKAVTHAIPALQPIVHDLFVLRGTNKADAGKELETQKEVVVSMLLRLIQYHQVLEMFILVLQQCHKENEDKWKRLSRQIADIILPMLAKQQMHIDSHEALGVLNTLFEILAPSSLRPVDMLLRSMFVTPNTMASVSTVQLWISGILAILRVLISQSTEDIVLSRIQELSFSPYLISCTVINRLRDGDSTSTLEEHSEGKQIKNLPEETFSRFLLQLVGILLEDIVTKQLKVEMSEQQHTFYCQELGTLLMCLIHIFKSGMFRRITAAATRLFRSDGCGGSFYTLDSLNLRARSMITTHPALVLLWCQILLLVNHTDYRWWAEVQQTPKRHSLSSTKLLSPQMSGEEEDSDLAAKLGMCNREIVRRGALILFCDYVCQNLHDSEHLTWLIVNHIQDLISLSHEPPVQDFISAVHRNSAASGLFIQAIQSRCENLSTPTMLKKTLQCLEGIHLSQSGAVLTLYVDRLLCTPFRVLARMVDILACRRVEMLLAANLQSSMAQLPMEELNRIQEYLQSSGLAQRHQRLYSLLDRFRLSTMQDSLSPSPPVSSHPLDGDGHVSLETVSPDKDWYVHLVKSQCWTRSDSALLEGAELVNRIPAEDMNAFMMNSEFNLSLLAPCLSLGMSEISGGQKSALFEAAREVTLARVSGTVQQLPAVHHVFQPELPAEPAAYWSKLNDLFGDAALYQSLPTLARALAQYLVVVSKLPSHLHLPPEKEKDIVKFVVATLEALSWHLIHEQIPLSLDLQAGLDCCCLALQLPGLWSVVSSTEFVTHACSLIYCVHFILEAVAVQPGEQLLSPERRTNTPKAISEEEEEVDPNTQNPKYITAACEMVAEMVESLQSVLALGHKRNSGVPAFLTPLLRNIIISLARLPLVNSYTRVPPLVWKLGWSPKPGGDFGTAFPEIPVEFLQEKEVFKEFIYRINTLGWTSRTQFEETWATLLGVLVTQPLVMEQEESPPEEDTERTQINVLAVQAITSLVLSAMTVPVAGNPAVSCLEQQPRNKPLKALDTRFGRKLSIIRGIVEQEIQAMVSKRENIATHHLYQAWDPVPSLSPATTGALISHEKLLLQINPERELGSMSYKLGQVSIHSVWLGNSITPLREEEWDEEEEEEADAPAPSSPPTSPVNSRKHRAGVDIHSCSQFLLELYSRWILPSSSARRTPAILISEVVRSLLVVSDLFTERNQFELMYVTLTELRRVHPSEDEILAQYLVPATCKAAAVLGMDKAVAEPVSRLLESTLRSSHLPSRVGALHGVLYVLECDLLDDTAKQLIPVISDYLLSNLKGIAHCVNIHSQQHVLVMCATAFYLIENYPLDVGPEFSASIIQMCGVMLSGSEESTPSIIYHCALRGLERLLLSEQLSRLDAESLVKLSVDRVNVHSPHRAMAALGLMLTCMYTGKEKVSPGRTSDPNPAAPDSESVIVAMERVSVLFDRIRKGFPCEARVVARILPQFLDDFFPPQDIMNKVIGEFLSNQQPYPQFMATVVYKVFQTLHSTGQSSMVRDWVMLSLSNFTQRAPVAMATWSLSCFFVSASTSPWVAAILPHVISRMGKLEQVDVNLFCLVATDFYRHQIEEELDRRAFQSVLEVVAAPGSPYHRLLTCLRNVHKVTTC

Legend:
Assay in all cases: co-IP; HeLa cells transfected with GFP-vector or the GFP-tagged protein for 16 h (48 h for the Htt(1–548) constructs); GFP-tagged proteins pulled down with GFP-Trap_MA beads (Chromotek); endogenous CCT2 detected by blot
[1] = biological target: Htt(1–548)Q15-GFP (WT HTT(1–548) tagged to GFP at its C terminus) (UniProt P42858)
N17-103Q-GFP = biological target: N17-103Q-GFP
N17-97QP-GFP = biological target: N17-97QP-GFP
[2] = biological target: Htt(1–548)Q138-GFP (mutant HTT(1–548) tagged to GFP at its C terminus) (UniProt P42858)

Measured: binding

B1: CCT2 (protein, UniProt P78371 1-535)
chain: MASLSLAPVNIFKAGADEERAETARLTSFIGAIAIGDLVKSTLGPKGMDKILLSSGRDASLMVTNDGATILKNIGVDNPAAKVLVDMSRVQDDEVGDGTTSVTVLAAELLREAESLIAKKIHPQTIIAGWREATKAAREALLSSAVDHGSDEVKFRQDLMNIAGTTLSSKLLTHHKDHFTKLAVEAVLRLKGSGNLEAIHIIKKLGGSLADSYLDEGFLLDKKIGVNQPKRIENAKILIANTGMDTDKIKIFGSRVRVDSTAKVAEIEHAEKEKMKEKVERILKHGINCFINRQLIYNYPEQLFGAAGVMAIEHADFAGVERLALVTGGEIASTFDHPELVKLGSCKLIEEVMIGEDKLIHFSGVALGEACTIVLRGATQQILDEAERSLHDALCVLAQTVKDSRTVYGGGCSEMLMAHAVTQLANRTPGKEAVAMESYAKALRMLPTIIADNAGYDSADLVAQLRAAHSEGNTTAGLDMREGTIGDMAILGITESFQVKRQVLLSAAEAAEVILRVDNIIKAAPRKRVPDHHPC
binds: [1] | N17-103Q-GFP | N17-97QP-GFP | [2]
